# Library screen at single concentrations

Mtb cholesterol medium: 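Phenotypic screen: M. tuberculosis growth, cholesterol and DPPC medium, 4 days; the read-out is not stated. Tested at 500 µM. The record gives no direction; compounds that gave an IC50 in retests scored well above the rest, so higher reads as more growth inhibition. Of about 18,000 compounds tested this way, about 900 (5%) reached 50% or more in at least one test.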
Mtb glucose medium: 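Growth of Mycobacterium tuberculosis over 3 days (7H9 medium with glucose and tyloxapol); the read-out is not stated. Tested at 500 µM. Direction is inferred from retests: higher values go with more growth inhibition. Size under these conditions: about 18,000 compounds, about 1,400 of them at 50% or above in at least one test.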

The filed quantity is “Percent Effect” (%). How 0% and 100% were set is not recorded. Most values in the screen are low, and negative values occur. The compounds are a random part of those screened.

Result for CCc1c(C(N)=O)cnn1-c1ccccn1 was Mtb cholesterol medium: -12.55%; Mtb glucose medium: 13.98%. With c1ccc(CNC2CCCNC2)cc1 (configuration not stated) the screen gave Mtb cholesterol medium: 17.68%; Mtb glucose medium: 7.218%. CC(C)(C)NC(=O)CSc1cnn[nH]1 read Mtb cholesterol medium: 3.096%; Mtb glucose medium: -1.792%. O=C(Nc1cncc(Br)c1Cl)N1CCC(O)C1 (configuration not stated) read Mtb cholesterol medium: -52.46%; Mtb glucose medium: -19.94%. COc1ccc(C)cc1[C@@H](C)N gave Mtb cholesterol medium: -5.836%; Mtb glucose medium: 20.9%.

With CS(=O)(=O)c1ccc(CN2CCC(O)(CO)CC2)cc1 the screen gave Mtb cholesterol medium: -11.6%; Mtb glucose medium: -7.909%. Result for CCN(CC)C(=O)CN(C)C(=O)Cc1cccc(F)c1 was Mtb cholesterol medium: -4.686%; Mtb glucose medium: 18.2%. OCCOc1ccc(CNC2CC2)cc1 gave Mtb cholesterol medium: 7.932%; Mtb glucose medium: 11.19%. With CN(CCN)S(=O)(=O)c1cccs1 the screen gave Mtb cholesterol medium: -1.838%; Mtb glucose medium: 7.313%. With CN(C)C(=O)OCCO the screen gave Mtb cholesterol medium: -19.1%; Mtb glucose medium: -8.773%.

Result for CC(C)[C@@H](CO)Nc1cc([C@H]2C[C@@H](N)C2)ncn1 was Mtb cholesterol medium: 12.26%; Mtb glucose medium: 19.22%. With O=C(c1ccc(C2CCCNC2)cc1)N1CCSCC1 (configuration not stated) the screen gave Mtb cholesterol medium: -12.47%; Mtb glucose medium: 4.145%. With CNc1ncc(C(=O)N2C[C@H](C3CC3)[C@@H](N)C2)cn1 the screen gave Mtb cholesterol medium: -3.541%; Mtb glucose medium: 4.321%. Result for CNC(=O)C1CC(=O)N(c2cccc(Cl)c2)C1 (configuration not stated) was Mtb cholesterol medium: 4.595%; Mtb glucose medium: 17.52%. Cc1ccc2cc(C(=O)N[C@@H](C)C(N)=O)ccc2n1 gave Mtb cholesterol medium: -19.91%; Mtb glucose medium: -13.85%.

Result for NCCc1cccc2ncccc12 was Mtb cholesterol medium: -5.915%; Mtb glucose medium: 9.689%. CCC1CCCCN1C(=O)CN(CC(N)=O)C(C)C (configuration not stated) gave Mtb cholesterol medium: -3.078%; Mtb glucose medium: 4.032%. COC(=O)CN1CCCC1=O read Mtb cholesterol medium: -25.93%; Mtb glucose medium: -8.917%. CN(C)c1cc(CNC(=O)c2ccccn2)ccn1 read Mtb cholesterol medium: 22.91%; Mtb glucose medium: 22.94%. CCOC(=O)N1CCN(C(=O)c2ccco2)CC1 gave Mtb cholesterol medium: 18.06%; Mtb glucose medium: 26.38%.

COC(=O)CCN1CCNC(=O)C1c1cccs1 (configuration not stated) gave Mtb cholesterol medium: -2.165%; Mtb glucose medium: -1.523%. Cc1ncccc1OC1CCNC1 (configuration not stated) read Mtb cholesterol medium: 7.364%; Mtb glucose medium: 21.84%.

For reference, 2 entries once more:

- CCC1CCCCN1C(=O)CN(CC(N)=O)C(C)C (configuration not stated) | Mtb cholesterol medium: -3.078%; Mtb glucose medium: 4.032%
- CC(C)(C)NC(=O)CSc1cnn[nH]1 | Mtb cholesterol medium: 3.096%; Mtb glucose medium: -1.792%

From ChEMBL document CHEMBL3988442, “University of Dundee, Small-Polar-MMV Screening Library” (2021).